This is one part of the list.
Tests used:
Test in all cases: log2 fold change, soluble protein after heating vs DMSO (PISA); higher = thermal stabilisation; K562 cells, 10 uM, 30 min; active = over 0.2 and 3.5 SD of the protein, either way, in both replicates (recomputed)
[1] = compound: CS(=O)(=O)c1ccc(-c2cnc(N)c(C(=O)Nc3ccccc3)n2)cc1
In short: (§1)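 K562 cells at 2×10^6 cells/mL were given 10 μM compound for 30 min. Aliquots then went through 3 min of heating across 48°C-58°C, were pooled, and were extracted in PBS with 0.5% NP-40 at 4°C, and the supernatant after 21,000xg for 90 min was quantified by TMTpro 16plex LC-MS/MS with channel sums equalised. Thermal stability relative to control samples, from duplicates, is given as log2 fold change.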

Sequences of proteins named here, by UniProt entry; tags and fusion partners are left off. A change or cut given only in a name is not applied to a line headed by its entry.
UniProt Q9UFC0: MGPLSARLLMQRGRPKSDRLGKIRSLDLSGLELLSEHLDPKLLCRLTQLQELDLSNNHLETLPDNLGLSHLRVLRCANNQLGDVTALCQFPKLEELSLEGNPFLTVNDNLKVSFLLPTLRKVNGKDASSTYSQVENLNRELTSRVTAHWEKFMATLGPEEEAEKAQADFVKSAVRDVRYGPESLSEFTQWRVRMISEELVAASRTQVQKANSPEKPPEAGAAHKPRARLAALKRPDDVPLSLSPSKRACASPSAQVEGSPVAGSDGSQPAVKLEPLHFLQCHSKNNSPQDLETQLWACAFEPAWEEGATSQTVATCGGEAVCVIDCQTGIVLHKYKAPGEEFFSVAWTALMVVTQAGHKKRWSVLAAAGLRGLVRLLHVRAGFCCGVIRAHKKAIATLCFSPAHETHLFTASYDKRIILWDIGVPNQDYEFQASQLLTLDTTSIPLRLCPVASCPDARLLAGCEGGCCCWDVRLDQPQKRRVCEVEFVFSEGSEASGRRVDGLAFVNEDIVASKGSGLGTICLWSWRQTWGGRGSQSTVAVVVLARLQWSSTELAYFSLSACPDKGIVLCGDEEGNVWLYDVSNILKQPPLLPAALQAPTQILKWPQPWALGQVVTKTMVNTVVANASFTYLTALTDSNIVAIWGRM
UniProt Q8TDW0: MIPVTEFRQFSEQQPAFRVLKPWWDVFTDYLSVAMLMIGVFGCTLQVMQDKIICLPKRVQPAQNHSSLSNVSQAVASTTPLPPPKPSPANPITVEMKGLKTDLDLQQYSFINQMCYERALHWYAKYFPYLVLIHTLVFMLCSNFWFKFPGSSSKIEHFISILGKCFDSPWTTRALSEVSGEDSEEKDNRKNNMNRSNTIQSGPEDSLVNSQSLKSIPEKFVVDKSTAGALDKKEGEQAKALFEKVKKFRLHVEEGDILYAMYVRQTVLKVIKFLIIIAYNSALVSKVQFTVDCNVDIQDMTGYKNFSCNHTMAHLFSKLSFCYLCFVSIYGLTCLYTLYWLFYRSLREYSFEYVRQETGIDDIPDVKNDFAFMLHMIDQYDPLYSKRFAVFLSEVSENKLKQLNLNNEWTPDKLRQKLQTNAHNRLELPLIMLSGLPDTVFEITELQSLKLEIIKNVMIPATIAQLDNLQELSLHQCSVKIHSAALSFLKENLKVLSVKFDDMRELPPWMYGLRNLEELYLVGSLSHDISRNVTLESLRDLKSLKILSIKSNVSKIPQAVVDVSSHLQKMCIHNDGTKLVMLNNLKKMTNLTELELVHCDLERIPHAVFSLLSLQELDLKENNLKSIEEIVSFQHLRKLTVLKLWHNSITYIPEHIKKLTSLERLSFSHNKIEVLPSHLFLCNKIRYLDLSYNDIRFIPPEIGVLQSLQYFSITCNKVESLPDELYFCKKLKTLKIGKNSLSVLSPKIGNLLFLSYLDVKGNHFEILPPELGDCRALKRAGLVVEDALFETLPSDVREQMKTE
UniProt Q8WWC4: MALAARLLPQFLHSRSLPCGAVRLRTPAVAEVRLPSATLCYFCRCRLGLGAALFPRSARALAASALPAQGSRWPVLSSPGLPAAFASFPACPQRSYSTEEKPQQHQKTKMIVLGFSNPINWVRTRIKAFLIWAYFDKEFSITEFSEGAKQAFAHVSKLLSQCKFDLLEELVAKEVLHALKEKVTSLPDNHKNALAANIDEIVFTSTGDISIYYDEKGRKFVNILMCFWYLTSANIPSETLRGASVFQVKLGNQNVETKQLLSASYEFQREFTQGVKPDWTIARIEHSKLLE
UniProt P48449: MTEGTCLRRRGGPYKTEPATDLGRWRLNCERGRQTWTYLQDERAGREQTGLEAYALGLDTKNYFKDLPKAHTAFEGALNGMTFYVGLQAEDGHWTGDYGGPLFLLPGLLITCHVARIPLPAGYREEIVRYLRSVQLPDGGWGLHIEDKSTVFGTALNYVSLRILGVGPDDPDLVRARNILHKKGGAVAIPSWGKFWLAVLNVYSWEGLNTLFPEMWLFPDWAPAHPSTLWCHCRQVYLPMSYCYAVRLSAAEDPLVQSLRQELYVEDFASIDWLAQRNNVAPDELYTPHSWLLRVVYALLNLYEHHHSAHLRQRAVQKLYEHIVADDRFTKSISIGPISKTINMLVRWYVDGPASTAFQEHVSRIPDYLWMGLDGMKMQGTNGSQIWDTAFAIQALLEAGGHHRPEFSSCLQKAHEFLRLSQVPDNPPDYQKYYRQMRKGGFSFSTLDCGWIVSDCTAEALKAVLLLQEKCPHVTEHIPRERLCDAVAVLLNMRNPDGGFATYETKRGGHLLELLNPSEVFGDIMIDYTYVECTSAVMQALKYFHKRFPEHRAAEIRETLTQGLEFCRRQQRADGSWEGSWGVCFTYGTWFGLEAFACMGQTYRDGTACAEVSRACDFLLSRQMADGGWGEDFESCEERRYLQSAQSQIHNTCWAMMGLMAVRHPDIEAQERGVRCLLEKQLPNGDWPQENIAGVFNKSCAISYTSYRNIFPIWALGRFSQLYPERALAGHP
UniProt Q15013: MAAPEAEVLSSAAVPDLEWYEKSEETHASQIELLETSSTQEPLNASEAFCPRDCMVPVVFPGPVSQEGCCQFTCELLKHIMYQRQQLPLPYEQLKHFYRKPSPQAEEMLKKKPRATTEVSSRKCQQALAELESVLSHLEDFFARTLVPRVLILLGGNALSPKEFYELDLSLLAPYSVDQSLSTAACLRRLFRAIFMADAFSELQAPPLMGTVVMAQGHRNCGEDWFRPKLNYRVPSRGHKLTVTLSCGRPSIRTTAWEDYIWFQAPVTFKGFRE
UniProt O94822: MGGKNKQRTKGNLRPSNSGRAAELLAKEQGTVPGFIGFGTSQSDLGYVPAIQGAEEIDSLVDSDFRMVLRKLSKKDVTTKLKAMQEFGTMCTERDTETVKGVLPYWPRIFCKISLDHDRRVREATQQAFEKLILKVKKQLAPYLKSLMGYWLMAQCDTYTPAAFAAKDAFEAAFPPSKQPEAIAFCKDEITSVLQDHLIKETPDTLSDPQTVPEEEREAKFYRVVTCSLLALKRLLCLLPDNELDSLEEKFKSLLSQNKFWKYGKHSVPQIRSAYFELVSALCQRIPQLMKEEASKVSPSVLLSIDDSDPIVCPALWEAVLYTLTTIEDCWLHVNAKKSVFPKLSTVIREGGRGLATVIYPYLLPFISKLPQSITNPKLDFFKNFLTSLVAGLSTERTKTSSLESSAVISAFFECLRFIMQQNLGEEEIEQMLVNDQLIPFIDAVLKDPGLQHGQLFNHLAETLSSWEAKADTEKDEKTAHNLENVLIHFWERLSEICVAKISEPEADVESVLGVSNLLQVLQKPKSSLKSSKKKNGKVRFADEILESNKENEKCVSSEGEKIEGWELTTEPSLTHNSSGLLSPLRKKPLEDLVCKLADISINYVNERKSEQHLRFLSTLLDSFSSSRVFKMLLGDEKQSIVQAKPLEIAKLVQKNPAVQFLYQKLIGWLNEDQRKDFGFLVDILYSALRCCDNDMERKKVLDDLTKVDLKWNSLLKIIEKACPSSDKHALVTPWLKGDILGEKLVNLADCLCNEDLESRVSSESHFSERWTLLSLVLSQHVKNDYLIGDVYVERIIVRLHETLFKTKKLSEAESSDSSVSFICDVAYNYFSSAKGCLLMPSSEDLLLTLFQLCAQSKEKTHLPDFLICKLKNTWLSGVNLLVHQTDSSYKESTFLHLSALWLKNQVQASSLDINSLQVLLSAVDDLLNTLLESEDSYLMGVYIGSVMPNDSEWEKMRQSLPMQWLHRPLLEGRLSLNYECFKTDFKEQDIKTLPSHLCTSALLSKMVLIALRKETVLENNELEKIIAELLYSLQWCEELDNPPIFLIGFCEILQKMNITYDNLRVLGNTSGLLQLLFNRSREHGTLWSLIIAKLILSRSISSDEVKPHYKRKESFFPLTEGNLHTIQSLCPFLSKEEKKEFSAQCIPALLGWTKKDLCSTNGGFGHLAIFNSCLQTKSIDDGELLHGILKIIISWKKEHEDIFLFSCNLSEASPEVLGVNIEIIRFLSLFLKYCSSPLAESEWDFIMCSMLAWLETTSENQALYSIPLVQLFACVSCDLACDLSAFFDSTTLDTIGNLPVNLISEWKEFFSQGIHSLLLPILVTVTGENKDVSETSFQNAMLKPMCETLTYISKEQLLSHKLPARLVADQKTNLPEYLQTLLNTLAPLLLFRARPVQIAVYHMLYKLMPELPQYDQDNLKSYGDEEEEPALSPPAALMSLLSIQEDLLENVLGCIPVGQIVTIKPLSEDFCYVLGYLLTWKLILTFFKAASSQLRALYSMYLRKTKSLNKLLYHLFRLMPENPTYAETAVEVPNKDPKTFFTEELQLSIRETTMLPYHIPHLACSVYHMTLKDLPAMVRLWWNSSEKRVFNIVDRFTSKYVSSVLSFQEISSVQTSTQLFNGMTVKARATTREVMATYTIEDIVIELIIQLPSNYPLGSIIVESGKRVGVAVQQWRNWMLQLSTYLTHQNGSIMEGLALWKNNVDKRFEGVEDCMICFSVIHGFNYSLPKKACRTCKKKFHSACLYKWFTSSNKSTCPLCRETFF
UniProt Q9Y4Y9: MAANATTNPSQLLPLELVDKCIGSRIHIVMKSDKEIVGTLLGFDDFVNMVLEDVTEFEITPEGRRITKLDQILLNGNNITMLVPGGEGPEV
UniProt Q9UI95, whole entry, looked up: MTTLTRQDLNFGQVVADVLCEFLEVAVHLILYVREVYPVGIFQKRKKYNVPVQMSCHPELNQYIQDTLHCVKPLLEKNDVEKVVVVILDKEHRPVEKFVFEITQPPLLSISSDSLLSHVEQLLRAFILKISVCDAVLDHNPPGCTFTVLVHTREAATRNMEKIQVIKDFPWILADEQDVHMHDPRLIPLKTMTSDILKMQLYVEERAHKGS
UniProt Q96A72, whole entry, looked up: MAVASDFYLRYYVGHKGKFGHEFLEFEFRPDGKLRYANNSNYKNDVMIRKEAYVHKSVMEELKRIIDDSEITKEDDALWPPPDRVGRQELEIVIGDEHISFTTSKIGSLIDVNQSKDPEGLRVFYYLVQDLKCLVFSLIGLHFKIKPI
UniProt Q96QZ7: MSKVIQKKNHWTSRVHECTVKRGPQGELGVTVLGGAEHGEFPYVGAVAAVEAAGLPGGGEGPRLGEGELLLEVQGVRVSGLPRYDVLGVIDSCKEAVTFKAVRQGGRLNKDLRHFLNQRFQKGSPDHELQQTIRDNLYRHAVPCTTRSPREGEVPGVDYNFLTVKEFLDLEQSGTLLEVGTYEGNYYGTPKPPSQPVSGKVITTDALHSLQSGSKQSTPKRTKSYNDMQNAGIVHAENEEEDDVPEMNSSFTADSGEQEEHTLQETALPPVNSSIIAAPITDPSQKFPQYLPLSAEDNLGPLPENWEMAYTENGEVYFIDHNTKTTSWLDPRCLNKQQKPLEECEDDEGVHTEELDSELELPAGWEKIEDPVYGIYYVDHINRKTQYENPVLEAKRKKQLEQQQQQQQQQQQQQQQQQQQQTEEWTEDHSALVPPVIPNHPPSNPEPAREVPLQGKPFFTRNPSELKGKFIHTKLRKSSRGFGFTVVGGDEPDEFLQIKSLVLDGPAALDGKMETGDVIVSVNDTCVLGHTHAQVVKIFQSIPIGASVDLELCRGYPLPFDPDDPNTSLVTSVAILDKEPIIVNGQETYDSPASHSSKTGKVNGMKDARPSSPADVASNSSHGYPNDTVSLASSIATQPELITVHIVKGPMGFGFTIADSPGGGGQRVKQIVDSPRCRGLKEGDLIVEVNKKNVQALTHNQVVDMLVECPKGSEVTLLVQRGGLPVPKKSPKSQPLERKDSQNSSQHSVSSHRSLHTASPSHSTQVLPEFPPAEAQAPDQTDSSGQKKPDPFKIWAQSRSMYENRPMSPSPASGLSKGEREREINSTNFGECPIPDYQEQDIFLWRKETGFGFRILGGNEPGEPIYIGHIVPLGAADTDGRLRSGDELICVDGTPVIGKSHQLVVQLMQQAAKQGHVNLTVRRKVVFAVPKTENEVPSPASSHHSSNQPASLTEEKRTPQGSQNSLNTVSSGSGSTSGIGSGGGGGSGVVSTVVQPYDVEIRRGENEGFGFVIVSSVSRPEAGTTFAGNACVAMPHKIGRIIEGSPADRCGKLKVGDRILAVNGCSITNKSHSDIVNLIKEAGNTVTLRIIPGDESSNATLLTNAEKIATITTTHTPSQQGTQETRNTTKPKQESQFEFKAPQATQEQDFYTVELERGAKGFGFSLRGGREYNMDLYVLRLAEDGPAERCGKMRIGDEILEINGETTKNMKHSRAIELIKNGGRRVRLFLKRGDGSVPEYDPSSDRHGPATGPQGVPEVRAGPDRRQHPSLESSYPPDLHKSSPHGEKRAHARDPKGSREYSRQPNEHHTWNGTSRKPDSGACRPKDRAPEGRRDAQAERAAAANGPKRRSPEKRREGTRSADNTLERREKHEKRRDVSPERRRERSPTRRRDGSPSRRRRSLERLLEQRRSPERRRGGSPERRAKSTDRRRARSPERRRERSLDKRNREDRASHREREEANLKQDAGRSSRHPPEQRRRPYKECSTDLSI

crizotinib = compound: C[C@@H](Oc1cc(-c2cnn(C3CCNCC3)c2)cnc1N)c1c(Cl)ccc(F)c1Cl [crizotinib]
In short: as §1

[2] = compound: C[C@@H]1COCCN1C2=NC(=NC(=C2)C3(CC3)S(=O)(=O)C)C4=C5C=CNC5=CC=C4
In short: as §1

[3] = compound: C[C@H](C1=CC=C(C=C1)C(=O)NC2=C3C=CNC3=NC=C2)N
In short: as §1

gandotinib = compound: Cc1cc(Nc2cc(CN3CCOCC3)c3nc(C)c(Cc4ccc(Cl)cc4F)n3n2)n[nH]1 [gandotinib]
In short: as §1

[4] = compound: Cc1cc(SCc2sc(-c3ccc(C(F)(F)F)cc3)nc2C)ccc1OCC(=O)O
In short: as §1

doramapimod = compound: Cc1ccc(-n2nc(C(C)(C)C)cc2NC(=O)Nc2ccc(OCCN3CCOCC3)c3ccccc23)cc1 [doramapimod]
In short: as §1

ispinesib = compound: Cc1ccc(C(=O)N(CCCN)[C@@H](c2nc3cc(Cl)ccc3c(=O)n2Cc2ccccc2)C(C)C)cc1 [ispinesib]
In short: as §1

bafetinib = compound: Cc1ccc(NC(=O)c2ccc(CN3CC[C@H](N(C)C)C3)c(C(F)(F)F)c2)cc1Nc1nccc(-c2cncnc2)n1 [bafetinib]
In short: as §1

[5] = compound: Cc1cccc(CC(=O)N2CCc3c2ccc(-c2cn(C)c4ncnc(N)c24)c3F)n1
In short: as §1

nilotinib = compound: Cc1cn(-c2cc(NC(=O)c3ccc(C)c(Nc4nccc(-c5cccnc5)n4)c3)cc(C(F)(F)F)c2)cn1 [nilotinib]
In short: as §1

[6] = compound: Cc1nc(Nc2n[nH]c3c2CN(C(=O)N[C@H](CN(C)C)c2ccccc2)C3(C)C)c2sccc2n1
In short: as §1

dasatinib = compound: Cc1nc(Nc2ncc(C(=O)Nc3c(C)cccc3Cl)s2)cc(N2CCN(CCO)CC2)n1 [dasatinib]
In short: as §1

[7] = compound: Cc1ncc(-c2ccnc(Nc3ccc(S(C)(=O)=O)cc3)n2)n1C(C)C
In short: as §1

[8] = compound: Cn1cc(-c2ccc3c(c2)CCN3C(=O)Cc2cccc(C(F)(F)F)c2)c2c(N)ncnc21
In short: as §1

[9] = compound: Cn1cc(-c2ccc3nnc(C(F)(F)c4ccc5ncccc5c4)n3n2)cn1
In short: as §1

tipifarnib = compound: Cn1cncc1[C@@](N)(c1ccc(Cl)cc1)c1ccc2c(c1)c(-c1cccc(Cl)c1)cc(=O)n2C [tipifarnib]
In short: as §1

mubritinib = compound: FC(F)(F)c1ccc(/C=C/c2nc(COc3ccc(CCCCn4ccnn4)cc3)co2)cc1 [mubritinib]
In short: as §1

duvelisib = compound: C[C@H](Nc1ncnc2nc[nH]c12)c1cc2cccc(Cl)c2c(=O)n1-c1ccccc1 [duvelisib]
In short: as §1

tozasertib = compound: Cc1cc(Nc2cc(N3CCN(C)CC3)nc(Sc3ccc(NC(=O)C4CC4)cc3)n2)n[nH]1 [tozasertib]
In short: as §1

| Target | log2 fold change [1] | log2 fold change (crizotinib) | log2 fold change [2] | log2 fold change [3] | log2 fold change (gandotinib) | log2 fold change [4] | log2 fold change (doramapimod) | log2 fold change (ispinesib) | log2 fold change (bafetinib) | log2 fold change [5] | log2 fold change (nilotinib) | log2 fold change [6] | log2 fold change (dasatinib) | log2 fold change [7] | log2 fold change [8] | log2 fold change [9] | log2 fold change (tipifarnib) | log2 fold change (mubritinib) | log2 fold change (duvelisib) | log2 fold change (tozasertib) |
| --- | --- | --- | --- | --- | --- | --- | --- | --- | --- | --- | --- | --- | --- | --- | --- | --- | --- | --- | --- | --- |
| MAP3K20 (UniProt Q9NYL2) | inactive: -0.003 | inactive: -0.01 | inactive: -0.065 | inactive: 0.059 | inactive: -0.025 | inactive: 0.053 | inactive: -0.072 | inactive: -0.141 | active: -0.246 | inactive: 0.039 | inactive: -0.216 | inactive: 0.057 | active: -0.712 | inactive: -0.079 | inactive: -0.065 | inactive: -0.019 | inactive: -0.013 | inactive: -0.041 |  |  |
| LRWD1 (UniProt Q9UFC0) | inactive: 0 | inactive: -0.442 | inactive: 0.064 | inactive: -0.023 |  | inactive: 0.076 | inactive: 0 | inactive: -0.05 | inactive: 0.114 |  | inactive: -0.21 | inactive: -0.236 | inactive: -0.195 | inactive: 0.042 | inactive: 0.109 | inactive: 0.111 | inactive: -0.145 | inactive: -0.013 | inactive: 0.143 | inactive: 0.165 |
| MADD isoform 2 (UniProt Q8WXG6) | inactive: -0.086 | inactive: -0.076 | inactive: 0.057 | inactive: 0.205 |  | inactive: 0.099 | inactive: 0.026 | inactive: -0.124 | inactive: 0.071 |  | inactive: -0.174 | inactive: -0.059 | inactive: -0.003 | inactive: 0.131 | inactive: -0.181 | inactive: -0.031 | inactive: -0.075 | inactive: 0.099 | inactive: -0.026 | inactive: -0.068 |
| LRRC8C (UniProt Q8TDW0) | inactive: 0.044 | inactive: 0.028 | inactive: -0.216 | inactive: 0.22 | inactive: 0.019 | inactive: -0.143 | inactive: 0.135 | inactive: 0.033 |  | inactive: 0.082 | inactive: 0.062 | inactive: 0.008 | inactive: 0.105 | inactive: 0.045 | inactive: -0.19 | inactive: -0.082 | inactive: -0.008 | inactive: 0.052 | inactive: 0.008 |  |
| MAIP1 (UniProt Q8WWC4) | inactive: 0.071 | inactive: -0.114 | inactive: 0.062 | inactive: -0.072 | inactive: -0.025 | inactive: -0.005 | inactive: -0.008 | inactive: -0.21 | inactive: -0.147 | inactive: 0.005 | inactive: 0.027 | inactive: 0.007 | inactive: -0.021 | inactive: -0.004 | inactive: 0.031 | inactive: 0.028 | inactive: -0.047 | inactive: -0.006 |  |  |
| LSS (UniProt P48449) | inactive: 0.043 | active: 0.77 | inactive: 0.081 | inactive: 0.02 | inactive: 0.044 | inactive: 0.017 | inactive: 0.024 | inactive: 0.111 | inactive: 0.393 | inactive: 0 | inactive: -0.046 | inactive: 0.047 | inactive: 0 | inactive: 0.013 | inactive: 0.145 | inactive: 0 | inactive: -0.039 | inactive: 0.193 |  |  |
| MAPK6 (UniProt Q16659) | inactive: 0.124 | inactive: 0.052 | inactive: 0.017 | inactive: 0.079 | inactive: 0.156 | inactive: -0.155 | inactive: -0.044 |  | inactive: 0.106 | inactive: -0.223 | inactive: -0.015 | inactive: 0.021 | inactive: 0.04 | inactive: 0.014 | inactive: 0.099 |  | inactive: -0.064 | inactive: 0.093 | inactive: -0.013 | inactive: 0.111 |
| LTBP4 (UniProt Q8N2S1) | inactive: 0 | inactive: 0.126 | inactive: 0.107 | inactive: 0.058 | inactive: -0.068 | inactive: -0.153 | inactive: -0.04 |  |  | inactive: 0.017 | inactive: -0.045 | inactive: 0.102 | inactive: 0.148 | inactive: 0.261 | inactive: -0.072 |  | inactive: -0.005 | inactive: 0.167 | inactive: 0 | inactive: 0.052 |
| MAP4 (UniProt E7EVA0) | inactive: 0.023 | inactive: -0.02 | inactive: -0.222 | inactive: 0.231 | inactive: -0.001 | inactive: -0.017 | inactive: 0.136 | inactive: -0.134 | inactive: 0.311 | inactive: -0.028 | inactive: -0.014 | inactive: 0.015 | inactive: 0.168 | inactive: -0.018 | inactive: -0.166 | inactive: -0.036 | inactive: 0.019 | inactive: 0.055 |  |  |
| MAD2L1BP isoform 3 (UniProt Q15013) | inactive: 0.013 | inactive: -0.027 | inactive: 0.076 | inactive: -0.072 |  | inactive: 0.061 | inactive: -0.011 | inactive: 0.063 | inactive: 0.013 |  | inactive: -0.056 | inactive: -0.067 | inactive: -0.034 | inactive: -0.013 | inactive: 0.029 | inactive: -0.065 | inactive: -0.045 | inactive: 0.069 | inactive: -0.026 | inactive: -0.062 |
| LTN1 isoform 3 (UniProt O94822) | inactive: -0.049 | inactive: -0.136 | inactive: -0.077 | inactive: 0.128 | inactive: -0.234 | inactive: 0.11 | inactive: 0.021 | inactive: -0.229 | inactive: -0.036 | inactive: 0.039 | inactive: -0.079 | inactive: -0.031 | inactive: -0.122 | inactive: -0.052 | inactive: -0.09 | inactive: -0.042 | inactive: -0.151 | inactive: -0.009 |  |  |
| MAP3K2 (UniProt Q9Y2U5) | inactive: 0.042 | inactive: -0.155 | inactive: -0.043 | inactive: -0.106 | inactive: -0.144 | inactive: 0.034 | inactive: -0.012 | inactive: -0.076 | inactive: -0.016 | inactive: 0.044 |  |  | inactive: 0.035 |  | inactive: 0.109 | inactive: 0.066 | inactive: 0.02 | inactive: -0.177 | inactive: 0.057 | inactive: -0.379 |
| LSM5 (UniProt Q9Y4Y9) | inactive: -0.109 | inactive: -0.034 | inactive: -0.131 | inactive: 0.225 | inactive: -0.291 |  | inactive: 0.023 | inactive: 0.007 | inactive: 0.109 | inactive: 0.301 | inactive: 0.19 | inactive: -0.814 |  | inactive: -0.142 | inactive: 0.004 | inactive: -0.089 |  | inactive: 0.298 |  | inactive: -0.322 |
| MAD2L2 (UniProt Q9UI95) | inactive: -0.053 | inactive: -0.032 | inactive: 0.283 | inactive: 0.08 | inactive: -0.153 | inactive: -0.034 | inactive: -0.062 |  |  | inactive: 0.069 |  |  | inactive: -0.104 |  | inactive: 0.091 |  |  |  | inactive: 0.209 |  |
| MAGOHB (UniProt Q96A72) | inactive: 0.005 | active: 0.324 | inactive: 0.013 | inactive: -0.131 | inactive: 0.084 | inactive: 0.05 | inactive: -0.016 | inactive: 0.076 | inactive: -0.015 | inactive: -0.007 | inactive: -0.019 | inactive: -0.042 | inactive: 0.007 | inactive: 0.138 | inactive: -0.017 | inactive: 0.024 | inactive: 0 | inactive: 0.04 |  |  |
| MAGI1 (UniProt Q96QZ7) | inactive: -0.006 | inactive: -0.003 | inactive: -0.053 | inactive: 0.032 | inactive: 0.003 | inactive: 0.046 | inactive: 0.024 | inactive: -0.042 | inactive: -0.055 | inactive: -0.023 | inactive: 0.015 | active: -0.477 | inactive: 0.039 | inactive: -0.044 | inactive: 0.052 | inactive: -0.079 | inactive: 0.079 | inactive: -0.021 |  |  |
| MAP4 (UniProt P27816) | inactive: -0.004 | inactive: 0.012 | inactive: -0.025 | inactive: -0.035 | inactive: 0.006 | inactive: -0.051 | inactive: 0.008 | inactive: -0.014 | inactive: 0.008 | inactive: 0.005 | inactive: 0.008 | inactive: 0.008 | inactive: 0.049 | inactive: -0.01 | inactive: -0.033 | inactive: -0.029 | inactive: 0 | inactive: -0.007 |  |  |
| MAPRE3 (UniProt Q9UPY8) | inactive: -0.011 | inactive: 0.004 | inactive: 0.092 | inactive: -0.085 | inactive: -0.098 | inactive: 0.006 | inactive: -0.042 | inactive: 0.02 | inactive: -0.037 | inactive: 0.038 | inactive: -0.012 | inactive: -0.038 | inactive: -0.042 | inactive: 0.021 | inactive: -0.041 | inactive: 0.061 | inactive: -0.037 | inactive: 0.027 |  |  |

Reformatted as tab-separated lines: entries from further up.
Target	log2 fold change [1]	log2 fold change (crizotinib)	log2 fold change [2]	log2 fold change [3]	log2 fold change (gandotinib)	log2 fold change [4]	log2 fold change (doramapimod)	log2 fold change (ispinesib)	log2 fold change (bafetinib)	log2 fold change [5]	log2 fold change (nilotinib)	log2 fold change [6]	log2 fold change (dasatinib)	log2 fold change [7]	log2 fold change [8]	log2 fold change [9]	log2 fold change (tipifarnib)	log2 fold change (mubritinib)	log2 fold change (duvelisib)	log2 fold change (tozasertib)
LTN1 isoform 3 (UniProt O94822)	inactive: -0.049	inactive: -0.136	inactive: -0.077	inactive: 0.128	inactive: -0.234	inactive: 0.11	inactive: 0.021	inactive: -0.229	inactive: -0.036	inactive: 0.039	inactive: -0.079	inactive: -0.031	inactive: -0.122	inactive: -0.052	inactive: -0.09	inactive: -0.042	inactive: -0.151	inactive: -0.009		
MAP3K2 (UniProt Q9Y2U5)	inactive: 0.042	inactive: -0.155	inactive: -0.043	inactive: -0.106	inactive: -0.144	inactive: 0.034	inactive: -0.012	inactive: -0.076	inactive: -0.016	inactive: 0.044			inactive: 0.035		inactive: 0.109	inactive: 0.066	inactive: 0.02	inactive: -0.177	inactive: 0.057	inactive: -0.379
